Measurements: US5756291
For part of these data: No signal at the amounts used counts as a negative. For part of these data: Where a protein sequence is shown, tags need not be part of it. For part of these data: The exact form of at least one protein or probe is not confirmed.

Legend:
trypsin = trypsin (UniProt P00760); assay: filter binding; conditions: ~1 uM protein; purified native protein; protein details: Sigma (Example 20); label: 32P; single-stranded DNA
chymotrypsin = assay: filter binding; conditions: ~1 uM protein; purified native protein; protein details: Sigma (Example 20); label: 32P; single-stranded DNA
[1] = test system: thrombin (alpha, Factor IIa) (Homo sapiens); assay: filter binding; conditions: purified native protein, label: 32P, single-stranded DNA
[2] = target: TPA (tissue plasminogen activator) (UniProt P00750); assay: filter binding; conditions: ~1 uM protein; purified native protein; label: 32P; single-stranded DNA
[3] = target: prothrombin (Homo sapiens) (UniProt P00734); assay: filter binding; conditions: ~1 uM protein; repeat 9.5%; purified native protein; protein details: Haematologic Technologies (Example 20); label: 32P; single-stranded DNA
plasmin = assay: filter binding; conditions: ~1 uM protein; repeat 15.0%; purified native protein; label: 32P; single-stranded DNA
[4] = target: serum albumin (Homo sapiens) (UniProt P02768); assay: filter binding; conditions: 100 uM protein; repeat <0.5%; purified native protein; protein details: Sigma (Example 20); label: 32P; single-stranded DNA; counted as no binding
ancrod = target: T1, ancrod (UniProt P26324); assay: inhibition of the protein; conditions: 33 uM DNA; control 25 s, 24 s at 500 nM; purified native protein; protein details: Sigma A-5042; single-stranded DNA; counted as no effect
T1 sequence (looked up, limits assumed): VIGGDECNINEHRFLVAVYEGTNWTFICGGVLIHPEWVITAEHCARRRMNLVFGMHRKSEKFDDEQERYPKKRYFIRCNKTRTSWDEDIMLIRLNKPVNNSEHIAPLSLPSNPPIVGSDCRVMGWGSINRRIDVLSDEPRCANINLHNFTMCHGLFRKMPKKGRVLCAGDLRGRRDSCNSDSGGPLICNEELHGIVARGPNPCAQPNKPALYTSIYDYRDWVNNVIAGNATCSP

[5] = test system: thrombin (alpha, Factor IIa) (Homo sapiens); assay: inhibition of the protein; conditions: control 24.3 s, purified native protein, single-stranded DNA, counted as no effect
[6] = test system: gamma-thrombin (Greek letter lost in print + thrombin with proteolytically cleaved anion binding exosite) (Homo sapiens); assay: EMSA; conditions: X 5-pentynyl-dU, T in 3' constant region also 5-pentynyl-dU, T in 5' constant region unmodified [23,25,27,30,32,35,37,38 (X = 5-pentynyl-dU), 44,45,46,50,58 (3' constant region T = 5-pentynyl-dU)], 500 nM protein, 4 C, purified native protein, protein details: Haematologic Technologies, single-stranded DNA, letters built from the parent sequence and the stated change

CGGGGAGAGGTTGGTGTGGTTGGCAATGGCTAGAGTAGTGACGTTTTCGCGGTGAGGTCC
binding signal (trypsin): < 0.5 % bound
binding signal (chymotrypsin): < 0.5 % bound
Kd ([1]; selection buffer, Mg2+, Ca2+, K+): 200 nM
binding signal ([1]; ~1 uM protein): 59 % bound
binding signal [2]: < 0.5 % bound
binding signal [3]: 11 % bound
binding signal (plasmin): 15 % bound
binding signal [4]: 2 % bound

GGTTGGGCTGGTTGGGTTGGG [21-mer thrombin aptamer]
functional effect of the aptamer (ancrod): 26 s clot time

TAGAATACTCAAGCTTCGACGGTATATAGTATAGTATTGGCAGTTTGGATCCCCGGGTAC [clone 24 T-substituted 60-mer]
functional effect of the aptamer ([5]; 4 uM, variant of pentynyl-dU clone 24 60-mer): 25.1 s clot time

GCTGTAGATATTAGTATAGT [clone 24 20-nt variable region scrambled]
functional effect of the aptamer ([5]; X 5-pentynyl-dU [3,5,9,11,12,15,17,20 (X = 5-pentynyl-dU)], 1 uM, letters built from the parent sequence and the stated change, variant of clone 24 20-nt variable region): 24 s clot time

TAGAATACTCAAGCTTCGACGGTATATAGTATAGTATTGGCAGTTTGGATCCCCGGGTAC [pentynyl-dU clone 24 60-mer]
binding result [6]: no binding
